Measurements reported in patent publication US20130217685, “COMPOUNDS FOR MODULATING RNA BINDING PROTEINS AND USES THEREFOR” (UNIVERSITY OF MASSACHUSETTS, published 2013).
Construct, isoform or probe ends are uncertain for at least one entry.

How the values were obtained:
[1] = test system: POS-1 (80-180) (Caenorhabditis elegans); assay: FP; settings: same conditions as MEX-5 screen, Zn(OAc)2; compound inhibition screen; purified recombinant protein; label: 3'-fluorescein
[2] = test system: MEX-3 (45-205) (Caenorhabditis elegans); assay: FP; settings: 80 nM protein, 2 nM RNA, no zinc; compound inhibition screen; purified recombinant protein; label: 3'-fluorescein

AACUAUUAUUAUUUGUUAUUCAUAUUUU [BMF018]: binds [1].

CGAGCAGGAAGUGUGCAGAGUUUAGGACGU [SEQ 14]: binds [2].
